This test concerns the target chemokine domain of CX3CL1 (human). Briefly: fluorescence change of a 5-TAMRA-labelled peptide, single concentration; 500 nM 5-TAMRA peptide with or without 2 μM CCL2 or CX3CL1 in HBSS with 1 mM CaCl2 and 1 mM MgCl2; 20 minutes at RT; excitation 520 nm, emission 580 nm; both purified.

No constants are given. Whether binding was seen depends on the method and setting. Binding calls can cover weak binding; strength is not graded here.

Turning to SKFTNNMLAIAG (L-5-Carboxytetramethylrhodamine (5-TAMRA) at the C-terminal) [CBP2-EC peptide, 5-TAMRA fluorescent], the binding result is on record as “binds”.
Take STLNLKNEN (L-5-Carboxytetramethylrhodamine (5-TAMRA) at the C-terminal) [CBP1-EC peptide, 5-TAMRA fluorescent]: the binding entry is “binds”.

The record behind these values is publication PMC5031962.
